Reference: PubChem BioAssay AID1224826 (NIAID, 2016)
Shown is a random part of about 17,000 reagents. Over the whole deposit, about 1,110 (6.6%) are marked active. 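Active means lowered or raised reporter signal; replicate intensities are raw and not normalised per plate.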 Not all columns of the deposit are shown. Reagent sequences are not shown.

Assay: 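Regulators of Tlr4 signalling leading to Tnf-alpha expression in macrophages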 (primary screen)
Cell system: RAW264.7 G9 macrophages from mouse bearing reporters for p65 (GFP) and the Tnf promoter (mCherry)
Reagent: siRNA pool against mouse genes, 100 nM
Time to read-out: 16 h of LPS stimulation, after 2 days of siRNA transfection
Challenge: bacterial lipopolysaccharide (Salmonella minnesota R595), 10 ng/ml
Read-out: 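Imaged Tnf reporter mCherry in nuclei, minus background, normalised per plate to the median and expressed as robust z-scores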
Direction: Tnf reporter robust z-score: higher = stronger Tnf promoter reporter signal after LPS
Rule for the call: 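a well counts as active at a score of -1.3 or below (Tlr4 knock-down control median) or above 3 (raised signal); controls and wells holding fewer than 50 cells are excluded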
Calls: active = Tnf reporter clearly lowered or raised; inactive = no clear change in Tnf reporter

| target | Tnf reporter robust z-score | fewer than 50 cells in well | outcome |
| --- | --- | --- | --- |
| Or5as1 | 1.04 | enough cells in well | inactive |
| Slc9a1 | – | fewer than 50 cells per well; well left out of calls | inactive |
| Drd5 | – | fewer than 50 cells per well; well left out of calls | inactive |
| Vbp1 | 0.08 | enough cells in well | inactive |
| Dut | -0.27 | enough cells in well | inactive |
| Cnmd | 0.08 | enough cells in well | inactive |
| Col4a5 | 0.31 | enough cells in well | inactive |
| Or11q2 | -0.35 | enough cells in well | inactive |
| Mdp1 | 0.61 | enough cells in well | inactive |
| Ybx2 | 1.42 | enough cells in well | inactive |
| Gpr21 | 0.24 | enough cells in well | inactive |
| Neurod1 | -1.78 | enough cells in well | active |
| Dusp9 | -0.31 | enough cells in well | inactive |
| Rbm18 | -0.04 | enough cells in well | inactive |
| Ctnna2 | 0.03 | enough cells in well | inactive |
| Or9k2b | 3.83 | enough cells in well | active |
| Magea3 | 1.59 | enough cells in well | inactive |
| Cenpn | 0.91 | enough cells in well | inactive |
| Msi2 | 1.35 | enough cells in well | inactive |
| H2-Q1 | -0.08 | enough cells in well | inactive |
| Or2z2 | – | fewer than 50 cells per well; well left out of calls | inactive |
| Or4f6 | -0.1 | enough cells in well | inactive |
| Rwdd4a | -0.22 | enough cells in well | inactive |
| Defb9 | 0.29 | enough cells in well | inactive |

In a second layout: 3 of the entries above
target | Tnf reporter robust z-score | fewer than 50 cells in well | outcome
Cenpn | 0.91 | enough cells in well | inactive
Msi2 | 1.35 | enough cells in well | inactive
H2-Q1 | -0.08 | enough cells in well | inactive
